Results: PubChem BioAssay AID493014 (National Center for Advancing Translational Sciences (NCATS), 2011)
Some of the results follow. Shown are side measurements of this screen, not its main read-out; they come without a call. Most of these compounds were active or inconclusive in the main read-out, so they are no random draw. The note in brackets gives the kind of curve behind each potency; many fits are weak. Square brackets hold non-standard residues; d marks the D form. Peptide text beside a SMILES is read from it. * marks the point of attachment. Hyp = O=C(O)[CH]1C[CH](O)CN1; Cbz = O=C(OCc1ccccc1)*; OBn = c1ccc(CO*)cc1

Test: qHTS Assay to Find Inhibitors of Chronic Active B-Cell Receptor Signaling
Settings: ABC-DLBCL IkBa-CBG/CBR reporter, luminescence ratio (green luciferase fused to IkBa over red control in TMD8 lymphoma cells), 4 h
In short: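 Cell line TMD8 (human ABC DLBCL), stably expressing tet-inducible CBG68-IkBa fusion and CBR; IMDM/0.5% FBS; cpd up to 46 uM; dox induction, 4 h, 37C/5% CO2; dual luminescence; green/red ratio; MG132 control.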

[1] = measured here: CBR red luminescence, cell number
[2] = measured here: IkBa-CBG green luminescence

Question: For `COc1ccc(/C=N/NC(=O)c2ccncc2)cc1COc1ccc(NC(C)=O)cc1`, which AC50 [1] is on record?
Answer: 0.355 µM [rising, full curve, poor fit]

Question: For `Cc1c(NC(C)C)c(=O)n(-c2ccccc2)n1C`, which AC50 [1] is on record?
Answer: 23.1 µM [rising, partial curve, poor fit]

Question: For `CC1(C)NC(=O)N(CCCCSc2ccc(Cl)cc2)C1=O`, which AC50 [1] is on record?
Answer: 5.17 µM [falling, partial curve, poor fit]

Question: Which AC50 [1] does the source give for `COc1ccc(OC)c(NC(=S)NN2CCN(C)CC2)c1` here?
Answer: 16.4 µM [rising, partial curve, poor fit]

Question: For `COc1cc(C)c(CN2CCC(Cc3ccccc3)CC2)cc1C`, which AC50 [1] is on record?
Answer: 6.31 µM [falling, single point]

Question: With `CCOc1ccc(Nc2ncnc3c2cnn3C)cc1` as the compound, how does the AC50 [1] read?
Answer: 0.562 µM [rising, full curve, poor fit]

Question: For `CCOC(=O)C1(Cc2ccccc2)CCN(Cc2cccn2-c2cccnc2)CC1`, which AC50 [1] is on record?
Answer: 22.4 µM [falling, single point]

Question: With `CCc1nc(C)cn1S(=O)(=O)c1cc([N+](=O)[O-])ccc1Cl` as the compound, how does the AC50 [1] read?
Answer: 35.5 µM [falling, partial curve, poor fit]

Question: And the AC50 [2]?
Answer: 22.4 µM [falling, single point]

Question: With `[O-][n+]1c2ccccc2c2n1CCN=C2c1ccc(Cl)cc1` as the compound, how does the AC50 [1] read?
Answer: 29.1 µM [falling, single point]

Question: With `O=C(Nc1ccccc1)c1cc2ccccc2[nH]1` as the compound, how does the AC50 [1] read?
Answer: 5.8 µM [falling, partial curve]

Question: Which AC50 [1] does the source give for `O=C(Nc1ccc(F)cc1)C1=CC(=O)N2CCN=C2S1` here?
Answer: 3.55 µM [falling, partial curve, poor fit]

Question: For `CCC(=O)N(C)CCc1cc2c(c(OC)c1/C=N/NC(=O)c1ccccc1O)OCO2`, which AC50 [1] is on record?
Answer: 29.1 µM [falling, single point]

Question: For `Cc1nc2ccccc2c(=O)n1/N=C/c1ccc2ccccc2c1O`, which AC50 [1] is on record?
Answer: 3.98 µM [falling, partial curve]

Question: For `COc1ccc(-c2nnc(SCC(=O)NCc3ccccc3)nc2-c2ccc(OC)c(OC)c2)cc1OC`, which AC50 [1] is on record?
Answer: 12.6 µM [rising, partial curve, poor fit]

Question: And the AC50 [2]?
Answer: 11.2 µM [falling, partial curve]

Question: Which AC50 [1] does the source give for `NC(=O)c1ccc(-n2nnnc2SCC(=O)Nc2ccc(N3CCOCC3)c(Cl)c2)cc1` here?
Answer: 6.51 µM [falling, single point]

Question: With `COc1ccc(C(=O)CCN2CCCCCC2)cc1` as the compound, how does the AC50 [1] read?
Answer: 35.5 µM [falling, single point]

Question: With `COc1cc(CNC2CCCC2)cc(Cl)c1OCc1ccccc1Cl` as the compound, how does the AC50 [1] read?
Answer: 22.4 µM [falling, single point]

Question: For `CCOC(=O)N1CCC(N2C(=O)c3ccccc3C2Nc2ccc3c(C)cc(=O)oc3c2)CC1` (configuration not stated), which AC50 [1] is on record?
Answer: 7.31 µM [rising, partial curve, poor fit]

Question: Which AC50 [1] does the source give for `Cn1cc(Cl)c(C(=O)NNC(=S)NC2CCCCC2)n1` here?
Answer: 18.4 µM [falling, partial curve]

Question: Which AC50 [1] does the source give for `O=C(N/N=C/c1cccc(OC(=O)c2ccccc2Cl)c1)c1cccnc1` here?
Answer: 8.91 µM [falling, partial curve, poor fit]

Question: For `CN(C)N1C(N)=C(C#N)C(c2ccc(F)cc2)C2=C1CC(C)(C)CC2=O` (configuration not stated), which AC50 [1] is on record?
Answer: 35.5 µM [falling, single point]

Question: For `O=C(O)c1ccc(Cl)c(S(=O)(=O)N(Cc2ccccc2)c2ccc(F)cc2)c1`, which AC50 [1] is on record?
Answer: 35.5 µM [falling, single point]

Question: Which AC50 [1] does the source give for `CCn1c(COc2ccccc2)nnc1SCC(=O)C(C)(C)C` here?
Answer: 35.5 µM [falling, partial curve, poor fit]

Question: With `CCOc1cc(C2C(C#N)=C(N)OC(C)=C2C(C)=O)c(Br)c(Br)c1OC(C)C` (configuration not stated) as the compound, how does the AC50 [1] read?
Answer: 6.51 µM [rising, single point]

Question: What about the AC50 [2] of the same compound?
Answer: 4.61 µM [falling, full curve]

Question: For `Cc1cc(C)c(OCC(=O)NCC2COc3ccccc3O2)c(C)c1` (configuration not stated), which AC50 [1] is on record?
Answer: 23.1 µM [rising, single point]

Question: For `O=C(CCn1c(=O)[nH]c2ccccc2c1=O)NCCSCc1ccccc1`, which AC50 [1] is on record?
Answer: 0.631 µM [rising, full curve, poor fit]

Question: Which AC50 [1] does the source give for `CCC(C(=O)OCC(=O)Nc1cccc(S(=O)(=O)NC2=NCCCCC2)c1)c1ccccc1` (configuration not stated) here?
Answer: 35.5 µM [falling, single point]

Question: With `COC(=O)CC1C(=O)NCCN1C(=O)Nc1ccc(Cl)cc1` (configuration not stated) as the compound, how does the AC50 [1] read?
Answer: 35.5 µM [rising, single point]

Question: With `O=C(NCC(=O)N1CC(O)CC1C(=O)N1CCCC1C(=O)OCc1ccccc1)OCc1ccccc1` (stereo not drawn) (Cbz-Gly-[Hyp]-Pro-OBn; configuration not given here) as the compound, how does the AC50 [2] read?
Answer: 17.8 µM [rising, partial curve, poor fit]

Question: For `Cc1ccccc1C(=O)c1c[nH]c(C(=O)N2CCN(c3ccccc3F)CC2)c1`, which AC50 [1] is on record?
Answer: 35.5 µM [falling, single point]

Question: With `O=C(Cn1nc(-c2ccccc2Cl)ccc1=O)Nc1ccc(Br)cc1` as the compound, how does the AC50 [1] read?
Answer: 12.6 µM [falling, single point]

Question: Which AC50 [1] does the source give for `Cc1ccc2cccnc2c1NC(=S)NC(=O)c1ccccc1` here?
Answer: 9.2 µM [falling, partial curve]

Question: Which AC50 [1] does the source give for `O=C(N/N=C/c1ccc(OCC(=O)N2CCOCC2)cc1)c1ccccc1Cl` here?
Answer: 22.4 µM [falling, partial curve, poor fit]

Question: Which AC50 [1] does the source give for `CC1CCCCC1NC(=O)c1ccc2c(c1)OCCO2` (configuration not stated) here?
Answer: 18.4 µM [falling, single point]

Question: For `CCn1cc(/C=N\NC(=O)c2csc3ccccc23)c(C)n1`, which AC50 [1] is on record?
Answer: 2.59 µM [falling, full curve, poor fit]

Question: With `Cc1ccc(N2C(=O)c3ccccc3NC2C(C)Cc2ccc3c(c2)OCO3)cc1` (configuration not stated) as the compound, how does the AC50 [1] read?
Answer: 29.1 µM [falling, single point]

Question: With `Cc1cc(C(=O)NC(=S)Nc2cccc(C(=O)O)c2C)ccc1[N+](=O)[O-]` as the compound, how does the AC50 [1] read?
Answer: 17.8 µM [falling, single point]

Question: Which AC50 [1] does the source give for `Cc1c(N=C2SCC(=O)N2/N=C/c2ccccc2)c(=O)n(-c2ccccc2)n1C` here?
Answer: 16.4 µM [falling, partial curve]

Question: Which AC50 [1] does the source give for `CC1CCCC(C)N1CC(O)COc1c(F)cc(Br)cc1F` (configuration not stated) here?
Answer: 25.1 µM [falling, partial curve, poor fit]

Question: For `O=C(CSc1nnc(-c2cccnc2)o1)Nc1ccccc1Br`, which AC50 [1] is on record?
Answer: 0.631 µM [falling, partial curve, poor fit]

Question: With `O=C(/C=C/Nc1ccc(F)c(Cl)c1)c1ccccc1` as the compound, how does the AC50 [1] read?
Answer: 5.01 µM [falling, partial curve]

Question: What does the source list for `C=CCn1c(SCC(=O)OCC)nc2cc(C(=O)NCc3ccco3)ccc2c1=O`?
Answer: AC50 [1]: 0.206 µM [falling, partial curve, poor fit]; AC50 [2]: 0.82 µM [rising, full curve, poor fit]

Question: With `NC(=S)N=Nc1c(O)n(Cc2ccc(F)cc2)c2ccccc12` as the compound, how does the AC50 [1] read?
Answer: 2.59 µM [rising, full curve]

Question: What about the AC50 [2] of the same compound?
Answer: 8.2 µM [falling, partial curve]

Question: For `CC(=O)c1cnc2c(-c3ccc(Cl)cc3)cnn2c1C`, which AC50 [1] is on record?
Answer: 9.2 µM [rising, partial curve, poor fit]

Question: With `CSc1ccccc1NC(=O)CNCCCN1CCOCC1` as the compound, how does the AC50 [1] read?
Answer: 0.794 µM [rising, full curve, poor fit]

Question: Which AC50 [1] does the source give for `CC1(C)CC(=O)C(C(C2=C(O)CC(C)(C)CC2=O)c2ccc(O)c([N+](=O)[O-])c2)=C(O)C1` here?
Answer: 2.82 µM [falling, single point]

Question: For `Cc1ccccc1NC(=O)Cn1c(=O)n(-c2ccc(CC(=O)NCC3CCCO3)cc2)c(=O)c2ccccc21` (configuration not stated), which AC50 [1] is on record?
Answer: 6.31 µM [rising, single point]

Question: With `COc1cc(OC)cc(C(=O)N[C@H](C(=O)OCC(=O)Nc2ccc(F)c(F)c2)C(C)C)c1` as the compound, how does the AC50 [1] read?
Answer: 3.66 µM [rising, single point]

Question: For `Cn1c(=O)n(CCCOc2ccc(Cl)cc2)c2ccccc21`, which AC50 [1] is on record?
Answer: 2.59 µM [rising, full curve]

Question: For `Cc1cc(Oc2cc(N)cc([N+](=O)[O-])c2)ccc1Cl`, which AC50 [1] is on record?
Answer: 18.4 µM [rising, single point]

Question: With `CC(C)(C)NC(=O)CN(Cc1cccnc1)C(=O)c1csnn1` as the compound, how does the AC50 [1] read?
Answer: 35.5 µM [falling, single point]

Question: Which AC50 [1] does the source give for `Cc1ccc(S(=O)(=O)Nc2ccc(NC(=O)c3c(F)c(F)c(F)c(F)c3F)cc2)cc1` here?
Answer: 35.5 µM [falling, single point]

Question: With `O=C1CC(c2ccccc2)C(=O)N1c1cccc(O)c1` (configuration not stated) as the compound, how does the AC50 [1] read?
Answer: 3.26 µM [rising, single point]

Question: For `CN(C)c1nccc(N(Cc2ccccc2)Cc2ccccc2)c1C#N`, which AC50 [1] is on record?
Answer: 35.5 µM [falling, single point]

Question: For `Oc1c(N=NC(=S)Nc2ccccc2F)c2ccccc2n1Cc1ccccc1Cl`, which AC50 [1] is on record?
Answer: 2.51 µM [falling, full curve, poor fit]

Question: With `Cc1cccc(N2CCN(C(=O)C3CCN(S(=O)(=O)c4cccc5nsnc45)CC3)CC2C)c1` (configuration not stated) as the compound, how does the AC50 [1] read?
Answer: 29.1 µM [falling, single point]

Question: For `CCCCN(CC)CCNC(=O)c1cc2c(=O)n(C)c3ccccc3c2s1`, which AC50 [1] is on record?
Answer: 12.6 µM [falling, partial curve]

Question: For `COc1ccc(-c2nn(-c3ccccc3)cc2C=O)cc1[N+](=O)[O-]`, which AC50 [1] is on record?
Answer: 2.82 µM [rising, partial curve, poor fit]

Question: With `COC(=O)c1ccc(CSc2nnc(-c3ccncc3)o2)cc1` as the compound, how does the AC50 [1] read?
Answer: 35.5 µM [rising, single point]

Question: Which AC50 [1] does the source give for `COc1ccc(COc2ccc3ccc(=O)oc3c2)cc1` here?
Answer: 4.47 µM [rising, full curve, poor fit]

Question: Which AC50 [1] does the source give for `Cc1cc2occ(CC(=O)OCC(=O)Nc3sc4c(c3C#N)CCC(C)C4)c2cc1C` (configuration not stated) here?
Answer: 18.4 µM [rising, single point]

Question: With `Cc1[nH]c(=O)[nH]c(=O)c1S(=O)(=O)NCCc1ccc(S(N)(=O)=O)cc1` as the compound, how does the AC50 [1] read?
Answer: 0.184 µM [rising, partial curve, poor fit]
